In US20090318534A1, “METHODS AND COMPOSITIONS FOR THE TREATMENT OF SKIN DISEASES AND DISORDERS” (THE REGENTS OF THE UNIVERSITY OF CALIFORNIA, priority 2006, published 2009):
At least one compound was matched to its structure with a doubt left.

Test system: skin protease activity
Test: Skin protease activity in patients treated with minocycline
Type: in vivo, human
Conditions: preliminary data from patients treated with minocycline

Structure (SMILES): CN(C)c1ccc(O)c2c1C[C@H]1C[C@H]3[C@H](N(C)C)C(O)=C(C(N)=O)C(=O)[C@@]3(O)C(O)=C1C2=O [minocycline]
- skin protease activity in treated patients: decrease in skin protease activity
